The target in assay [1] is T1, murine AA amyloid (AA fibrils, amyloid enhancing factor extract or tissue deposits) (mouse) (UniProt P05367).
T1 sequence (looked up): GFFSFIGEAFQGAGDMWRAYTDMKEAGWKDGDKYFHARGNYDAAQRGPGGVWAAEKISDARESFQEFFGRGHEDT
In words: ELISA, serial dilution of hybridoma culture supernatant on murine AA AEF (murine-derived AA fibrils).

For assay [2], the target named is T1, murine AA amyloid (AA fibrils, amyloid enhancing factor extract or tissue deposits) (mouse). Put plainly: ELISA, purified mAb titrated on plate-bound murine AA amyloid extract (AEF). A general note: ELISA stands for enzyme-linked immunosorbent assay.
Assay [3] shares this target. Put plainly: ELISA, hybridoma culture supernatant on murine AA (AEF); not corrected for mAb concentration.
The target is the same in assay [4]. In words: comparison told in words, method for murine AA fibrils not given here.
Assay [5] addresses T2, human AA amyloid (renal AA amyloid extract or tissue deposits) (human) (UniProt P0DJI8).
T2 sequence (looked up): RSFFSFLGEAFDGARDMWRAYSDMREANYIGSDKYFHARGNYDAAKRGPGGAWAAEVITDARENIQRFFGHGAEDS
In words: told in words with the ELISA results.

Assay [6] deals with T1, murine AA amyloid (AA fibrils, amyloid enhancing factor extract or tissue deposits) (mouse). In words: told in words with the ELISA results.
In assay [7] the target is T2, human AA amyloid (renal AA amyloid extract or tissue deposits) (human). In words: immunohistochemistry on human AA-containing kidney, adrenal, ovary and liver.
The target of assay [8] is ALλ amyloid deposits in a patient's thyroid gland composed of λ2 fragments (human). Put plainly: immunohistochemistry, 3 µg/mL mAb on thyroid ALλ amyloid sections.
The target in assay [9] is T2, human AA amyloid (renal AA amyloid extract or tissue deposits) (human). Put plainly: ELISA, purified mAb titrated on plate-bound human renal AA amyloid extract.
The target in assay [10] is T1, murine AA amyloid (AA fibrils, amyloid enhancing factor extract or tissue deposits) (mouse). Put plainly: immunohistochemistry, hybridoma supernatants on TRIAD mouse liver and spleen.
Assay [11] has the same target. In words: SPECT imaging in TRIAD mice.
The target is the same in assay [12]. Put plainly: SPECT/CT imaging in mice with AA amyloidosis.
In assay [13] the target is T2, human AA amyloid (renal AA amyloid extract or tissue deposits) (human). In words: ELISA, told in words.
Assay [14] has as its target T1, murine AA amyloid (AA fibrils, amyloid enhancing factor extract or tissue deposits) (mouse). Put plainly: ELISA, told in words.
In assay [15] the target is murine monoclonal antibody 7D8. Put plainly: SPR competition: 20 µg/mL p41 left 7D8 binding to Vλ6 Wil fibrils identical to 7D8 alone.
Assay [16] addresses murine monoclonal antibody 7D8. In words: BIAcore competition: peptide p41 in solution with mAb 7D8 (6.6 nM, legend); interaction watched: 7D8 with immobilized Vλ6 Wil fibrils.
In assay [17] the target is murine monoclonal antibody 7D8. In words: immunohistochemistry, preincubation of 7D8 supernatant with peptide before staining murine AA amyloid.
In assay [18] the target is murine monoclonal antibody 7D8. In words: immunohistochemistry on human ovarian AA amyloid, peptide inhibition.

Consider four molecules from patent publication US20110038790A1.

Residue numbers refer to the chain shown, from its start. Results are given in words; binding and its absence hold for the method and conditions named. Some entries that bind do so weakly or less than the wild type.

B1: murine monoclonal antibody 2A4 (antibody, V domains shown)
VH: EVQLVESGGRLVQPKGSLKLSCAASGFTFNTYAMYWIRQAPGKGLEWVARIRSKSNNYAIYYADSVKDRFTIFRDDSQSMLYLQMNNLKTEDTAMYYCVRPYSDSFAYWGQGTLVTVSA
VL: DVVMTQTPLSLPVSLGDQASISCRSSQSLVHSTGNTYLHWYLQKPGQSPKLLIYKVSNRFSGVPDRFSGSGSGTYFTLKISRVEAEDLGVYFCSQSTHVPFTFGGGTKLEIK
On to B1, for which the binding result in assay [1], in [2], in [3], in assay [4], in assay [5] and in [6] was “binds” throughout. Moreover, the binding entry in [7], in assay [8], in assay [9] and in assay [10] was “binds” in each case.

B2: murine monoclonal antibody 7D8 (antibody, mouse IgG2b, V domains shown)
VH: B1 VH
VL: B1 VL with Q27L
Consider B2, for which the binding result in [1], in assay [2], in [3], in [4], in [11] and in assay [5] was “binds” in each case. The binding entry in assay [6], in assay [7], in [8], in assay [12], in assay [9] and in [10] was “binds” each time. Also, the binding entry in assay [13] and in assay [14] was “binds” each time.

B3: murine monoclonal antibody 8G9 (antibody, mouse IgG2b, V domains shown)
VH: B1 VH
VL: B1 VL
On to B3, for which the binding entry in assay [1], in assay [2], in assay [3], in [4], in assay [5] and in [6] was “binds” each time. Besides, the binding entry in [7], in assay [8], in assay [9] and in [10] was “binds” throughout.
Consider GHEDTIADQE [peptide 41, …], for which the binding result in assay [15] is “no binding (tested: 20 µg/mL)”; in assay [16], “no binding (tested: 20 µg/mL)”; in [17], “no binding (tested: 50 µg/mL)”; in assay [18] it was “no binding”.
